For experiment [1], the target named is Human epidermal growth factor receptor 2 (HER2/ErbB2) (human (endogenous in BT474 and SKBR3)) (UniProt P04626). In words: co-IP; endogenous proteins in BT474 and SKBR3 cell lysates (500 ug total protein); IP with anti-NEDD4, anti-SMURF1 or anti-HER2 antibody and protein A/G Plus-Agarose at 4 C, control IgG, western blot; for Fig. 3f cells pretreated with MG132 (10 uM) for 6 h. For orientation: Immunoblotting shows a protein as a band on a membrane.

The chains behind the UniProt entries cited, without tags or fusion partners.
UniProt Q9HCE7: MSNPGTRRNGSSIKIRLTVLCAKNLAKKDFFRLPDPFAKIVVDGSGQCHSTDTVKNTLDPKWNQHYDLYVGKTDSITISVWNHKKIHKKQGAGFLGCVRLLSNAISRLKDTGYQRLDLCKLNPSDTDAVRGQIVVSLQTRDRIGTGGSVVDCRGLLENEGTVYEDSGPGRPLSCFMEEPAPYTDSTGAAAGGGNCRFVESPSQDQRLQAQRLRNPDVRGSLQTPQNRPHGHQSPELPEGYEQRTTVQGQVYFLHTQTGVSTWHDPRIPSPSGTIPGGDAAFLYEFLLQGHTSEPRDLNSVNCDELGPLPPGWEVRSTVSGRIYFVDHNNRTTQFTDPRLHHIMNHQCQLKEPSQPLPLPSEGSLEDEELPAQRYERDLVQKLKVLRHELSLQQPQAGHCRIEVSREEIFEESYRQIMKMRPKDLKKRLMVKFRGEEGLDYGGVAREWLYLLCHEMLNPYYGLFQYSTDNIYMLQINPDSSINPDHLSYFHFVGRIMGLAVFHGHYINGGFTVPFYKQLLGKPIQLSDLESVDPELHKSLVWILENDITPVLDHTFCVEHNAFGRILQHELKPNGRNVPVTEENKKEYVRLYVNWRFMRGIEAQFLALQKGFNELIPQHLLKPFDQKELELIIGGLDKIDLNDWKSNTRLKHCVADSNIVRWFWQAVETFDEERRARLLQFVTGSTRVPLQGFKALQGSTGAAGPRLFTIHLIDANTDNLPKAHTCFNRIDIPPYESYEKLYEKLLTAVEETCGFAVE
UniProt P46934: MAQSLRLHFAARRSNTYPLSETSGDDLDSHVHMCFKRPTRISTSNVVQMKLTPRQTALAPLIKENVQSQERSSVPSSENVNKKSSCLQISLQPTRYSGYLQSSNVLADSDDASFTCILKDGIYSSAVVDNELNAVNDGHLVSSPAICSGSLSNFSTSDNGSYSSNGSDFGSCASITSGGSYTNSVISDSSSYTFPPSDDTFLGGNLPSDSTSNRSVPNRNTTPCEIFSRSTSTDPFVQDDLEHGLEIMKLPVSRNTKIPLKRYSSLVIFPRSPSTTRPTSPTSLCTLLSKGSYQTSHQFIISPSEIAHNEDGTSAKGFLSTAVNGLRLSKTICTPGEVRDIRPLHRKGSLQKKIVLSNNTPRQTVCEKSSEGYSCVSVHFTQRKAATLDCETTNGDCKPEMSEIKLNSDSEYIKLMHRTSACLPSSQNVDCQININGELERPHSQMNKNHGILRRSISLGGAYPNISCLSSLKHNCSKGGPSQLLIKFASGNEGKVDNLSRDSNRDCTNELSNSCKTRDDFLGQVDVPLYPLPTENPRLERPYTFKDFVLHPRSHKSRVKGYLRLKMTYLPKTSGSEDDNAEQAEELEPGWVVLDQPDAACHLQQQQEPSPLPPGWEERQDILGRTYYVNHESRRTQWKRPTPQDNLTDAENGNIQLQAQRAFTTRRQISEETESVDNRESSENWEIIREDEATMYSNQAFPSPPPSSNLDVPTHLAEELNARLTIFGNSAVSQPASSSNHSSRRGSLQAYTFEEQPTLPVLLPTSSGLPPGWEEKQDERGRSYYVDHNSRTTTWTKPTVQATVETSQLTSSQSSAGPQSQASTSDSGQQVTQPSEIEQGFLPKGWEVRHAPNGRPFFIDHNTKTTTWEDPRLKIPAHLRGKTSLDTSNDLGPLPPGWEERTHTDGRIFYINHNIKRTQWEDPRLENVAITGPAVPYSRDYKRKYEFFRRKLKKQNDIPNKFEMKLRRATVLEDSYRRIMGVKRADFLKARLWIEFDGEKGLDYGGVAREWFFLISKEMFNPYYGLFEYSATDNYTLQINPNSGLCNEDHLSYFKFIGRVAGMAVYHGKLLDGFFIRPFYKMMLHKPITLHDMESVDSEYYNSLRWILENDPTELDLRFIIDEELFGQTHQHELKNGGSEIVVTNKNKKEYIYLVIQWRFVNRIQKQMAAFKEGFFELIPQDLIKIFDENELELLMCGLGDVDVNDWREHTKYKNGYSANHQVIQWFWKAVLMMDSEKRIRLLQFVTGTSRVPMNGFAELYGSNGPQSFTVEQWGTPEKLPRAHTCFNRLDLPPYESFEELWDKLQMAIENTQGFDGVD

The target of experiment [2] is SMURF1 (human (endogenous in BT474 and SKBR3)) (UniProt Q9HCE7). The description is as above.

No constants are given. Whether binding was seen depends on the method and setting. Binding seen in cells or lysates may run through a third protein. Some entries that bind do so weakly or less than the wild type.

As to “NEDD4 (from UniProt P46934 1-1319) (enzyme)”, the figures for the binding entry in experiment [1] and in experiment [2] were “no binding” and “binds”, respectively. On to “SMURF1 (from UniProt Q9HCE7 1-757) (enzyme)”, for which the binding result in experiment [1] is given as “binds”.

Values taken from PMC8055679.
